# Laboratory results published in patent US9737587B2 (The Research Foundation for Mental Hygiene, Inc., priority 2014, dated 2017).
# No end group written: not given here.
# Assay: peptide synthesis
# Settings: whole synthesis
sequence,measurement,value
VGDGGLFEKKL,final HPLC purity,>96%
